Hit rate of the full screen: of about 31,000 sequences, about 1,400 (4.5%) were called active.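 How the source made its calls: active means median seed-adjusted z-score above 1 or below -1; inactive means the rest.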 Some of the results follow.

Consider 107 sequences from PubChem BioAssay AID1347426 (Functional Genomics Laboratory (NCATS/FGL), 2020).

A short description of the assay: Novel Modifiers of Survival Motor Neuron (SMN) Protein: Gene Identification via Genome-wide siRNA Screen.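 Further: luminescence tracks full-length SMN protein made from the SMN2 reporter.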 The following applies: HEK293T SMN2-luciferase reporter, siRNA knockdown, 72 h; actives lie on both sides. Put shortly: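 Genome-wide siRNA screen (10418 genes, 3 siRNAs each, 1 pmol per well) by reverse transfection in HEK293T cells stably carrying an SMN2-luciferase reporter; luminescence after 72 hours, normalized to negative-control siRNA, log10-transformed, MAD-scored.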
As to GGUCCUUACUUCUUAUGGATT against ABHD3, the median seed-adjusted z-score was inactive: -0.126. The same measure for GCAUAUAUCAAGAAUUCAATT against CLIC4: inactive: -0.498; for GGCUGUAGUUUGGAUGAUUTT against APLN: inactive: 0.0181.

Regarding UUCUUUUCACGAUAACUUUTT against KRTAP9-3, the median seed-adjusted z-score is inactive: -0.184. The same measure for GGAUUACCAUCACCGGAAATT against LSR: inactive: 0.306; for GGAGCAUCUUCACACGCAATT against LCP2: inactive: -0.826; for CUACCUCUACUACUGGUUATT against LRRC17: inactive: 0.0234. CCAUUGUAGUGACCCUAGUTT against FREM3: the median seed-adjusted z-score was inactive: -0.565. The same measure for GGGUGAACAAAAUCAGUUUTT against DGKI: inactive: -0.417.

Regarding CAUUACUUCGAGACACUAUTT against NGLY1, the median seed-adjusted z-score is inactive: -0.0453. To GGCGCACGCUUUUCUCUAATT against ACTR1A belongs active: 1.28; to GAACCAAGAUGAAUAGCAATT against HRH4, inactive: 0.247.

CAAAUGAGGGUGUAAUUGATT against SFRS6: the median seed-adjusted z-score was inactive: 0.378. To ACAUCGGACCAGCACCUGATT against CA11 belongs inactive: -0.0741. The same measure for CACCCGAAGUGAACCUAUUTT against CD200R2: inactive: -0.772; for GGGUCAUGGAGACAAACUATT against DHRS7B: inactive: 0.294. As for CUUUGUCUAUGUCACCAUUTT against IMP5, the median seed-adjusted z-score is inactive: 0.559.

Regarding GGAUCAUGGGUGUCAUCUATT against ABCC3, the median seed-adjusted z-score was inactive: -0.549.

Consider GCAUAUUGCUUGUAACUCATT against AKAP13, for which the median seed-adjusted z-score was inactive: 0.654. The same measure for GAAUAAGUGACUAUCCAAATT against SENP2: inactive: 0; for GCAUGAUGGAUGUUGAUCATT against CCT5: inactive: 0; for GCAAAGAGCAAGAACCAAATT against ONECUT2: inactive: -0.696. GGAGGGUACCUGUUUGGUUTT against CHI3L2: the median seed-adjusted z-score was inactive: 0.374. For the sequence CUUCAUCUUUUACACCAUUTT against SLC35B2, the median seed-adjusted z-score is inactive: -0.313.

As for CUGCCUAUGCUGCUAGGAATT against SDSL, the median seed-adjusted z-score is inactive: 0. To CCUCGACAGAUGAAACGCATT against MAP3K4 belongs inactive: 0.72; to GGGUAGAGGAGUUAAAGAATT against ZC3H10, inactive: -0.79. In the case of GAUUCUUGAUGGUAUCCAUTT against CDC2L6, the median seed-adjusted z-score was inactive: -0.31. Take GGACCGGAAAGGCGACAAATT against RPH3AL: the median seed-adjusted z-score is inactive: 0.21. The same measure for CCAUAGAUGUCACGUUUUUTT against CHRNA5: inactive: 0; for GAGAAAAUUUUGCACAGCATT against SLC25A23: inactive: 0.325. To GGAUCCUCUUAUCUCAAUATT against KLHL20 belongs inactive: -0.0828. Consider CAAUGUCGAUGGACAGGAATT against ZNF446, for which the median seed-adjusted z-score was inactive: 0.0496.

Take GAAUGACCCUGUACCCUAUTT against TAF2: the median seed-adjusted z-score is inactive: -0.243.

For AUCCGAUGGUGGUUACUGATT against MCOLN1, the median seed-adjusted z-score was inactive: -0.522. With CCUCCCUGCUGGUACAGAUTT against SLC2A10, the median seed-adjusted z-score was inactive: -0.0407. The same measure for GCAGACCAUUCACUACUAUTT against ST3GAL4: inactive: 0.245; for GAUCUUCUCAUAUUCGGGATT against SNX8: inactive: 0.115; for GAACCUGGAUCACAUAAUATT against DFFB: inactive: 0.242. To CCAGGUUGAUGAAGCUAAUTT against UBE2L3 belongs inactive: 0.378. For the sequence UGAUGUACCCUAGCCCGCATT against SRF, the median seed-adjusted z-score was inactive: -0.393.

Turning to CUUGGAAACUAGACCCAAATT against ZNF135, the median seed-adjusted z-score was inactive: 0.038. The same measure for UCAAAGACAUCGACAAGAATT against HTRA3: inactive: 0.291. GGCUCUACCUGCACUAUGATT against TRIM50: the median seed-adjusted z-score was inactive: 0. As to ACUACUUCCUGAACCGGGATT against CD2BP2, the median seed-adjusted z-score was inactive: -0.455. Take AGCUCUAUCUGGUGUUUGATT against CDK3: the median seed-adjusted z-score was inactive: 0.000485. To CAUUUUUCAUCGAAUAGUATT against PPIL6 belongs inactive: -0.215; to GCCUUGUGCUGUCAAUAAATT against CRIP2, inactive: -0.226; to GCCGGAAACAAAUACGUGATT against ZNF677, inactive: -0.441. To GCUUGAGCCUGUUAAAACUTT against UTP14A belongs inactive: -0.366; to CAUUAUCUCGUUUCCGGAATT against IFNGR2, inactive: 0.148; to CAGUCGAUGUCCAUGAAUATT against LRRN1, inactive: -0.407. To GAGCUUCAACUAACAGGAATT against NUPL2 belongs inactive: 0.134.

For the sequence GGACAAAGGCUGACAGACUTT against SNAI1, the median seed-adjusted z-score was inactive: 0.0196. Turning to GCUCGGACGCAAUCUGUGATT against TNFRSF4, the median seed-adjusted z-score is inactive: 0.311. The same measure for GGGUUAAUGAUGCAAUGAATT against COQ9: inactive: -0.787. The same measure for GGAGGAUCCGAUGCAGAUATT against C1S: inactive: -0.561. The same measure for GAAGCAGAGUGACUCCUUATT against GPR114: inactive: 0.805. GAAGGAACCUUUUGCGGCATT against LHX9: the median seed-adjusted z-score is inactive: 0.157.

On to UCAUCGUCGUGGGCUGCAATT against RHOD, for which the median seed-adjusted z-score is inactive: 0. To GAAUCCAGCUGGACUAUGATT against SQRDL belongs inactive: 0.455; to GCUAUGUUGAGUUACGUUATT against NDUFS3, inactive: -0.54; to GCUCUUUGCAAUUCCUAUUTT against FMO3, inactive: -0.0769.

On to GAAGGACAUUUAGGAGACATT against LPPR2, for which the median seed-adjusted z-score was inactive: 0.255. With GGGACUUUUGCAAAGGAAATT against CLEC5A, the median seed-adjusted z-score is active: -1.07. For the sequence GAGAUACACUGCGAAAAGATT against STK3, the median seed-adjusted z-score was inactive: 0.108. The same measure for CCUCAUUUGUCUACACCAUTT against RAD51L1: inactive: 0; for CCAACUGGUUUAUGAAGAATT against TAGLN: inactive: 0.0485; for GAAAUUUGCGCACCAUAUUTT against MGAT4C: inactive: 0.187. To CAUCGAAUCCUGCACGUGUTT against WNT1 belongs inactive: 0; to GUCCAUUAAUAAUAAAGCATT against PABPC3, inactive: -0.314. The same measure for GACUCUGUAUUAUACAGCATT against WARS2: inactive: 0.21; for AGACUUUAAUGGUAACCGUTT against FCN3: inactive: -0.112. Take GAAGAUCAUUAGAUUUCUATT against SULT1B1: the median seed-adjusted z-score is inactive: -0.115. Consider GAACCAUGACGGUACCUUUTT against FLNC, for which the median seed-adjusted z-score is inactive: 0.00217. The same measure for GACCUAACCAGGUAGAUGATT against TEX14: inactive: -0.107; for GCAGUUCCUGAAUUAGCUATT against METTL3: inactive: 0.261; for GGAUUACUCUGGUAUUGCUTT against ADIPOR2: inactive: -0.614.

On to CCCAGAAAAUUUCAUACUATT against TTC7B, for which the median seed-adjusted z-score was inactive: 0.0338. CAGUCCCUCAGAAACCUAATT against FCER1A: the median seed-adjusted z-score was inactive: -0.0293.

Turning to GCACUUAACCAACUAUUCATT against TTLL11, the median seed-adjusted z-score was inactive: 0.00825.

For CCAACUUUGUUGGUUACUATT against STYK1, the median seed-adjusted z-score is inactive: 0.106. The same measure for GAACGAGUCUUUGUAGUAATT against PRKD3: inactive: -0.906; for GAACUAUCCGAGUGGAUCATT against RBMX2: inactive: -0.585. The same measure for GCACUUAUAUGACAGCGAATT against SIM1: inactive: -0.0177; for CCACGACUGUCACUAAGUUTT against GABRB1: inactive: 0.238.

In the case of AGAAUAUAGCUGCUCAUGATT against PHF11, the median seed-adjusted z-score is inactive: 0.174. As to CCACAGAAGGUUAAGGUGATT against NOB1, the median seed-adjusted z-score is inactive: -0.0844. The same measure for GAAGUAUGAAGAAGAAGUATT against KRT83: active: 1.15. The same measure for GACUUAUCCAUUAAGAUCATT against PDK3: inactive: 0.232; for CAUUCGUUCUCUCAAUAAATT against CYP3A7: inactive: -0.107.

Take GAAGACGAAUGUAAAGGUATT against SMC6: the median seed-adjusted z-score is inactive: 0.227. The same measure for GGCAAGUUCUCCUUCGACATT against ALDH3B1: inactive: 0.148; for CUACGACGCGGAGAACAAATT against PRTN3: inactive: -0.49.

On to CACUUGAUGCGUACAAAGATT against NPY1R, for which the median seed-adjusted z-score was inactive: 0.76. Turning to GGUGGAUUACGAUCGAGCATT against PAK7, the median seed-adjusted z-score is inactive: -0.202. The same measure for GCACCAAAAUGCAAGAGAATT against NT5C1B: inactive: 0.0594; for GGAUCAUCUGGAAUAGGAATT against CLPB: inactive: -0.985. In the case of GAAGGUUCAGUUUCGGAAATT against ELL, the median seed-adjusted z-score is inactive: -0.497. To CGAACAUUCUUAAAGAACUTT against AP3M2 belongs inactive: 0.327; to AGCCUAUUGUGGUCUAUGATT against ECE1, inactive: -0.344; to GAAUCUCGAUUUCAUUGAATT against SERPINB1, inactive: 0.734. The same measure for GCACUGAUGAGGUAGUAGATT against SENP3: inactive: 0.543; for GUUGCAAUCAAGAAGCUAATT against MAPK8: inactive: 0.316; for CCUACUAUGAUGUUAGUAATT against SCGN: inactive: -0.0164.

Regarding CCAGCUAGAUUGGGAUGAATT against CLK4, the median seed-adjusted z-score is inactive: -0.201. To CAUCCAUUUGUCUUGCAAATT against GTF2F2 belongs active: -1.14.
